Laboratory results as given in patent EP0828725B1, “PROCESS FOR THE RECOVERY OF ASCORBIC ACID” (YISSUM RESEARCH DEVELOPMENT COMPANY OF THE HEBREW …, priority 1995, dated 1996).
For at least one compound, name, drawing or mass did not settle the structure.

What was measured:
Type in all cases: physicochemical
[1] = Extraction at 25°C and stripping at about 96°C with 50% w/w tridodecylamine and 50% w/w 1-n-octanol, recycled extractant; conditions: practically complete extraction with recycled extractant; feed 0.22 mol/kg
Description: […]. […] […]. The extractant was composed of 50% w/w tridodecylamine and 50% w/w of 1-n-octanol. The extraction was conducted at 25°C and the stripping at about 96°C.
Extraction as in Example 12 (100 g aqueous, 40 g extractant, 3 countercurrent stages) results in practically complete extraction of the acid to form an extract (loaded extractant) comprising 5% w/w lactic acid. […]. About two-thirds of the extracted lactic acid stays in the organic phase. Re-use of this organic phase in extraction from 2% lactic acid solutions results in low yields; not more than 20% of the acid is extracted. Increasing the number of stages in extraction has only a small effect. Near complete stripping and thus high yield in re-use of the organic phase requires about 150 g water per 40 g of extract, and 6-7 countercurrent stages. […]
Stripping the extract at 96°C with 35 g water results in an aqueous solution comprising 0.6 mol/kg ascorbic acid and an organic phase practically free of ascorbic acid. Re-use of this organic phase in extraction provides an extraction yield of at least 95% at the above conditions.

[2] = Distribution curves, extractant 1.2 mol/kg tricaprylyl amine (50%) and 3.8 mol/kg octanol (50%) (Fig. 3)
Description: Fig. 3 illustrates distribution curves for extraction by an extractant composed of 1.2 mol/kg tricaprylyl amine (50%) and 3.8 mol/kg octanol (50%). The loading of the extractant in contact with 0.2 mol/kg ascorbic acid containing aqueous solution is about 0.5 mol/kg. […] The effect is even more impressive at the low concentrations end. […] A concentration factor of about 4 can be reached on extraction at 25°C and back-extraction at 96°C.

[3] = Distribution curves, extractant 1.2 mol/kg tricaprylyl amine and 2.4 mol/kg octanol in kerosene (Fig. 2)

O=C1O[C@H]([C@@H](O)CO)C(O)=C1O [ascorbic acid, L-threo-hex-2-enonic acid τ-lactone]
product solution concentrated compared with the feed [1]: 3 times | concentration factor ([2]; extraction at 25°C and back-extraction at 96°C): about 4 | loading of the extractant ([2]; in contact with 0.2 mol/kg ascorbic acid containing aqueous solution): about 0.5 mol/kg | ascorbic acid in the aqueous phase equivalent to extractant loading of about 0.1 mol/kg ([3]; at 80°C, by extrapolating the bottom curve): 0.8 mol/kg | extractant loading ([3]; extraction at 25°C from an 0.2 mol/kg solution): about 0.1 mol/kg | uphill concentration factor ([3]; temperature gradient of 25-80°C): about 4
